Assay results as given in PMC11443168.
No constants are given. Whether binding was seen depends on the method and setting. In cells and extracts the contact can be indirect. A yes stands for co-enrichment or nearness to the bait. Other partners may have been found. Sequences can lack the tags named with a protein.

By UniProt entry, the sequences of proteins in these tests, tags left out. Residues count along the entry.
UniProt P30101, residues 25-505: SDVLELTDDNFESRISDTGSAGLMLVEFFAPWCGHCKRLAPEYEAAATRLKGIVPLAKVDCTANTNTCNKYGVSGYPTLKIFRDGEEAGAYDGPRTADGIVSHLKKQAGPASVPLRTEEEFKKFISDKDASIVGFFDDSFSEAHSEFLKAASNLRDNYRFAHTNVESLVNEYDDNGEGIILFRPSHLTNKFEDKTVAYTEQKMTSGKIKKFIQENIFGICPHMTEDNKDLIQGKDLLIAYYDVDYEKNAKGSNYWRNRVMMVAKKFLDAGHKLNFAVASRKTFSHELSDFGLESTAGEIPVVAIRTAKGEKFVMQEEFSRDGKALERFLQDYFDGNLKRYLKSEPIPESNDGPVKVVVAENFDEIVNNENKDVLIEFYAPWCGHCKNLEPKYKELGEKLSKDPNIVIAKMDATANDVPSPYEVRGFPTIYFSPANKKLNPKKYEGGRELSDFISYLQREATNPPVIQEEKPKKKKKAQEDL
UniProt P07237, residues 18-508: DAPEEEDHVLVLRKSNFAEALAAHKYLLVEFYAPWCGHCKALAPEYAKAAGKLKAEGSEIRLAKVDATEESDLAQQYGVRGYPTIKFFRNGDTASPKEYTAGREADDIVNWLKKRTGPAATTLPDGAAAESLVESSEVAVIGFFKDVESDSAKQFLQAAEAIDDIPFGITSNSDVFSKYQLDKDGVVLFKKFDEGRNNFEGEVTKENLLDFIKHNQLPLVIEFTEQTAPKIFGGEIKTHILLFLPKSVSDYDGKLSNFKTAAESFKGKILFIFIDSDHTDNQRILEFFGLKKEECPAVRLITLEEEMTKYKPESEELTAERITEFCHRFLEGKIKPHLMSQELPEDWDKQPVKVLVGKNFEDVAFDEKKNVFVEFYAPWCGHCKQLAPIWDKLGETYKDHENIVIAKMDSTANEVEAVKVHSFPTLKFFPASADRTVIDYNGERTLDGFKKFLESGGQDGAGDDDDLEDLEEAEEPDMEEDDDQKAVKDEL

T1: TMX5/TXNDC15, V5-tagged (TMX5-V5 WT) (UniProt Q96J42)
T1 sequence: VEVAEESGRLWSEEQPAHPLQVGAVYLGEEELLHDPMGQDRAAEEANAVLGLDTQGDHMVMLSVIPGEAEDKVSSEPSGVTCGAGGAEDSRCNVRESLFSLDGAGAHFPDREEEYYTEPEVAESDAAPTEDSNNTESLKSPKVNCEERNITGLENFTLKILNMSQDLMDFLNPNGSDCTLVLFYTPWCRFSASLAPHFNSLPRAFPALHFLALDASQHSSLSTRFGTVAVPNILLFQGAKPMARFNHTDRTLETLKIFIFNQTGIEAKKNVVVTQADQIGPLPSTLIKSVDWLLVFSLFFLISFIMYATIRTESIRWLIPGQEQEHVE

B1: endogenous ERp44 (protein, UniProt Q9BS26 30-406)
chain: EITSLDTENIDEILNNADVALVNFYADWCRFSQMLHPIFEEASDVIKEEFPNENQVVFARVDCDQHSDIAQRYRISKYPTLKLFRNGMMMKREYRGQRSVKALADYIRQQKSDPIQEIRDLAEITTLDRSKRNIIGYFEQKDSDNYRVFERVANILHDDCAFLSAFGDVSKPERYSGDNIIYKPPGHSAPDMVYLGAMTNFDVTYNWIQDKCVPLVREITFENGEELTEEGLPFLILFHMKEDTESLEIFQNEVARQLISEKGTINFLHADCDKFRHPLLHIQKTPADCPVIAIDSFRHMYVFGDFKDVLIPGKLKQFVFDLHSGKLHREFHHGPDPTDTAPGEQAQDVASSPPESSFQKLAPSEYRYTLLRDRDEL

Target: T1, TMX5/TXNDC15, V5-tagged (TMX5-V5 WT)
Test: affinity purification with mass spectrometry; V5-tagged TMX5 double-immunoprecipitated with anti-V5 beads from HEK293 RIPA lysates; non-reducing and reducing SDS-PAGE, silver stain; gel regions above TMX5 cut, in-gel trypsin digestion, LC/MS; proteins present in the non-reducing and absent in the reducing region taken as mixed-disulfide partners

Row | binding | Molecule
1 | binds | endogenous ERp57 (PDIA3) (from UniProt P30101 25-505)
2 | binds | endogenous PDI (PDIA1) (from UniProt P07237 18-508)
3 | binds | B1
